Results on 3 molecules are retold here after article PMC4177747, “Derlin-1 Regulates Mutant VCP-Linked Pathogenesis and Endoplasmic Reticulum Stress-Induced Apoptosis” (PLoS Genetics, 2014).

Protein sequences, listed by entry. Tags and fused reporters are not part of them. Lines headed by an entry give the natural chain unless they say otherwise; changes in a name come on top.
UniProt Q7KN62: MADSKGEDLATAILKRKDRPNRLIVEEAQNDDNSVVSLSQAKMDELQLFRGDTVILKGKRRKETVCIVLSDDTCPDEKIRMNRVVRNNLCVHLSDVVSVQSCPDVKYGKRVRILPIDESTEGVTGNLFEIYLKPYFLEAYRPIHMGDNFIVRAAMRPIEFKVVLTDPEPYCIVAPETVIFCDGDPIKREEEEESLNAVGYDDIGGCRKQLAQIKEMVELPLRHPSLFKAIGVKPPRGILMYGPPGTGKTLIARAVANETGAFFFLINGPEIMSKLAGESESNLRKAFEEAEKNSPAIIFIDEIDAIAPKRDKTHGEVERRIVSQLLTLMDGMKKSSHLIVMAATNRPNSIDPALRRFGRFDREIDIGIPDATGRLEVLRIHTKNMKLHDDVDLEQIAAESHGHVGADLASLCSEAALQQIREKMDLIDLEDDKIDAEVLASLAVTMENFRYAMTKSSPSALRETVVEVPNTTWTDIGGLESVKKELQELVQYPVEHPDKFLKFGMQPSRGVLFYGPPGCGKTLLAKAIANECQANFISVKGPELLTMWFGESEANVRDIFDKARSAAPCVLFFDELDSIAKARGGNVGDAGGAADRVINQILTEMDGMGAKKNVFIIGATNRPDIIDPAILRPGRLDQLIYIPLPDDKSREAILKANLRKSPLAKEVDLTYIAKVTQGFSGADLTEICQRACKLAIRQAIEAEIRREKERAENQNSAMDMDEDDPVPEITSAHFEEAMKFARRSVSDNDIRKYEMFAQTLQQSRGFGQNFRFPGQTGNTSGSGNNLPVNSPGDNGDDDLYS

No constants are given. Whether binding was seen depends on the method and setting. Binding seen in cells or lysates may run through a third protein. Some results given as binding are weak or reduced against the parent protein; the word gives no strength.

In test [1] the target is T1, Derlin-1 (wild-type, expressed from the UAS-derlin-1 transgene in hs>derlin-1 flies) (Drosophila) (UniProt Q9VQ57).
T1 sequence: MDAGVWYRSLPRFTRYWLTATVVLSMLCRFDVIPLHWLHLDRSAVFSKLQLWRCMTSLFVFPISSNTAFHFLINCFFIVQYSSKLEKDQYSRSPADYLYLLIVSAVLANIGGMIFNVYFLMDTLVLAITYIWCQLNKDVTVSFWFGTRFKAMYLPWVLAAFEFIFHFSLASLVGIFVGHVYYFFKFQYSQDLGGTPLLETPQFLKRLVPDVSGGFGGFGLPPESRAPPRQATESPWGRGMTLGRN
Description: co-IP; anti-Derlin-1 antiserum on protein A-agarose; whole fly lysates of heat-shocked hs-GAL4; tub-GAL80^ts flies; 4°C overnight; lysis buffer 0.5% Triton X-100, 10 mM Tris-HCl, 5 mM EDTA, 100 mM NaCl, pH 7.5; blot with anti-VCP and anti-Derlin-1.

In test [2] the target is T2, Derlin-1 (endogenous, fly) (Drosophila (endogenous in flies)) (UniProt Q9VQ57).
T2 sequence: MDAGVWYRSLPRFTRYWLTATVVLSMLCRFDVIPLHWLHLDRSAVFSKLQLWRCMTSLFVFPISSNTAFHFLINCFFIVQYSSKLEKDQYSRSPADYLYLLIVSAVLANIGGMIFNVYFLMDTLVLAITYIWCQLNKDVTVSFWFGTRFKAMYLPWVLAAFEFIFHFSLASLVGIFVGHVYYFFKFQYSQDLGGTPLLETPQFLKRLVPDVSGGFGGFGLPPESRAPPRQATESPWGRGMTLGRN
The test is described as above.

For test [3], the target named is TER94 (endogenous, the fly VCP homolog) (Drosophila (endogenous in flies)) (UniProt Q7KN62). Nature of the test: co-IP; sequential IP: first round with anti-VCP on protein A-agarose (4 hours, 4°C), unbound supernatant then with anti-Derlin-1; lysates of flies fed 24 µM tunicamycin for 2, 4 and 6 days and untreated.

Turning to “TER94 (endogenous, the fly VCP homolog) (from UniProt Q7KN62 1-801)”, the binding entry in test [1] is on record as “binds”.
For the molecule “TER94^A229E (pathogenic TER94 mutant, expressed from the UAS-TER94^A229E transgene) (from UniProt Q7KN62 1-801)”, the binding result in test [2] is recorded as “binds”.

B1: Derlin-1 (endogenous, fly) (natural protein, Drosophila (endogenous in flies), UniProt Q9VQ57 1-245, looked up)
chain: MDAGVWYRSLPRFTRYWLTATVVLSMLCRFDVIPLHWLHLDRSAVFSKLQLWRCMTSLFVFPISSNTAFHFLINCFFIVQYSSKLEKDQYSRSPADYLYLLIVSAVLANIGGMIFNVYFLMDTLVLAITYIWCQLNKDVTVSFWFGTRFKAMYLPWVLAAFEFIFHFSLASLVGIFVGHVYYFFKFQYSQDLGGTPLLETPQFLKRLVPDVSGGFGGFGLPPESRAPPRQATESPWGRGMTLGRN
notes: Derlin-1, Drosophila, endogenous protein of about 27 kD (predicted 28.25 kD); also called endogenous Derlin-1; source: endogenous, whole fly lysate
In the case of B1, the binding result in test [3] is listed as “binds”.
